For at least one compound, name, drawing or mass did not settle the structure.
Biological target: T1, human Nav1.5 (Homo sapiens, UniProt Q14524)
T1 construct: expressed in transfected cells
Experiment: PatchXpress automated patch-clamp, inactivated state block of Nav1.5 (selectivity)
Type: cell-based
Details: determined by PatchXpress measurement, HEK 293 cells
Description: Compounds were tested on human Nav1.7 and Nav1.5 channels stably expressed in HEK 293 cells. Activity toward Nav 1.7 and Nav 1.5 channels was assessed using the following assay methodology.
Sodium Current Measurements on the PatchXpress 7000®:
To measure inactivated state block of sodium channels, test compounds were characterized in an automated PatchXpress® assay (Molecular Devices) using a double-pulse protocol on human Nav1.7 and Nav1.5 channels stably expressed in HEK 293 cells. Cells were held at a potential 20 mV negative to V0.5 inact. An 8000 ms pre-pulse 7 mV positive to V0.5 inact was given followed by a hyperpolarizing 2 ms pulse to −120 mV and a 20 ms test pulse to −20 mV. Protocol was applied to cells in the absence, presence of compound and after washout. The temperature of PatchXpress instruments was maintained at 22° C. The following recording solutions were used. Internal solution (mM): 30 CsCl, 5 HEPES, 10 EGTA, 120 CsF, 5 NaF, 2 MgCl2. External solution (mM): 120 NMDG, 40 NaCl, 1 KCl, 0.5 MgCl2, 5 HEPES, 2.7 CaCl2.
For all electrophysiology experiments, offline analysis was used to correct for current rundown and to determine percent inhibition as a function of drug concentration. IC50 values were determined by fitting to the Hill equation.

Chains of the proteins cited; added tags and fusions are not shown.
UniProt Q14524, whole entry: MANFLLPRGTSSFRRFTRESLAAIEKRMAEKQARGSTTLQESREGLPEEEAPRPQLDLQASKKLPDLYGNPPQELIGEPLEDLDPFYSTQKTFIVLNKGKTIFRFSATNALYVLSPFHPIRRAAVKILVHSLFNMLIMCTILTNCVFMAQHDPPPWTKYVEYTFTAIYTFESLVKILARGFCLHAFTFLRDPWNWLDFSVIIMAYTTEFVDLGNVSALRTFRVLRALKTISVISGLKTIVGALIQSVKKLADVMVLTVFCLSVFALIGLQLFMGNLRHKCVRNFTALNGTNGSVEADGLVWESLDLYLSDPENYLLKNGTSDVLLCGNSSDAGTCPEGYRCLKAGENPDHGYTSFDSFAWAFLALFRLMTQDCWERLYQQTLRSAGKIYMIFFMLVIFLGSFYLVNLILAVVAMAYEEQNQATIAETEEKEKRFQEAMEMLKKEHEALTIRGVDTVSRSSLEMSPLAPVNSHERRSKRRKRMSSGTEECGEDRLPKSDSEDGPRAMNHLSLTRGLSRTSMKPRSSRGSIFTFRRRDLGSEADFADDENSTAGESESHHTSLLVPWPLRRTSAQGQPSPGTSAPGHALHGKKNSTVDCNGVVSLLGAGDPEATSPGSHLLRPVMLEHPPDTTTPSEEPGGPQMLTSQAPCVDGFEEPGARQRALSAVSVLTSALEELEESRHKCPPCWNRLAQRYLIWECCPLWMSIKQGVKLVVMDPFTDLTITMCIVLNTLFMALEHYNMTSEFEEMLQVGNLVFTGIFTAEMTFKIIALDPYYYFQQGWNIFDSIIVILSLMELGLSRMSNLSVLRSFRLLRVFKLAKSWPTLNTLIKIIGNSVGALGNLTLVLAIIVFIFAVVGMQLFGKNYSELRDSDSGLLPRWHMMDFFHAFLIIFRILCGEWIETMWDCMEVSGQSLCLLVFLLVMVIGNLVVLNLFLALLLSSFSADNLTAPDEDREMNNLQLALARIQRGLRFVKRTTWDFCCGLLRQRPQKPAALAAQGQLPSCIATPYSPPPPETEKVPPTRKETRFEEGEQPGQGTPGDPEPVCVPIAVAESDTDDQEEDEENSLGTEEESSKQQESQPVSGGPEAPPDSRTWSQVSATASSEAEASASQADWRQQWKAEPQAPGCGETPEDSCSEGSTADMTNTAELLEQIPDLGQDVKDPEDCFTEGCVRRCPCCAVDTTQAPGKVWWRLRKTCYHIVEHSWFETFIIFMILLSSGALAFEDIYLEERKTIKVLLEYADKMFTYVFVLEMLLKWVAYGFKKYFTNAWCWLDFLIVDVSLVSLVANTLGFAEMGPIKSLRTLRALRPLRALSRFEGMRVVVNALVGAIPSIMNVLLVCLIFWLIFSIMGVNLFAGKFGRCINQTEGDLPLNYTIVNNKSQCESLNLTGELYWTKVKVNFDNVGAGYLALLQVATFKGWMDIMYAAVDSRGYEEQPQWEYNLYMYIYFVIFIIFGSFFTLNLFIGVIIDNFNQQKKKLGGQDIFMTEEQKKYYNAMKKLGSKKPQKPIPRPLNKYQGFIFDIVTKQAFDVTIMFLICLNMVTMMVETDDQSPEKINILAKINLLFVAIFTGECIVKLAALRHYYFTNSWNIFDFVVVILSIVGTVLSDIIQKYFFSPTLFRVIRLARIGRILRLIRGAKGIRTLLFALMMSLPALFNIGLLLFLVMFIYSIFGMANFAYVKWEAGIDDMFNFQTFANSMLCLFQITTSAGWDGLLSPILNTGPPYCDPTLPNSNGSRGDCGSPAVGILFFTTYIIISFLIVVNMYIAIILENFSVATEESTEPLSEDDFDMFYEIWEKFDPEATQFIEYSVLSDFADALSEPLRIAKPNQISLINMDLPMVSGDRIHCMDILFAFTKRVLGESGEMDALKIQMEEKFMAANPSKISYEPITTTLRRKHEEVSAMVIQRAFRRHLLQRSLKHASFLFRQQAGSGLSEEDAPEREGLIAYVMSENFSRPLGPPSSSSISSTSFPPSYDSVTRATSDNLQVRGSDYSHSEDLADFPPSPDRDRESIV

`CC1CN2CCCC2(CNc2cc(F)c(S(=O)(=O)Nc3nccs3)cc2Cl)C1` [Ex4-9, 5-chloro-2-fluoro-4-{[((2S,7aR and 2R,7aS)-2-methyl-tetrahydro-1H-pyrrolizin-7a(5H)-yl)methyl]amino}-N-(1,3-thiazol-2-yl)-benzenesulfonamide] was tested, and the “ratio of Nav1.7 potency:Nav 1.5 potency” value was 2512.

Reference: US9586968B2, “Bicycloamine-substituted-N-benzenesulfonamide compounds with selective activity in voltage-gated sodium channels” (Merck Sharp & Dohme Corp., priority 2013, dated 2017)
